Our source for the binding values is paper PMC4122344, “Heterodimerization of p45–p75 Modulates p75 Signaling: Structural Basis and Mechanism of Action” (PLoS Biology, 2014).

Sequences of proteins named here, by UniProt entry; tags and fusion partners are left off. Residues count along the entry.
UniProt P07174, residues 30-425: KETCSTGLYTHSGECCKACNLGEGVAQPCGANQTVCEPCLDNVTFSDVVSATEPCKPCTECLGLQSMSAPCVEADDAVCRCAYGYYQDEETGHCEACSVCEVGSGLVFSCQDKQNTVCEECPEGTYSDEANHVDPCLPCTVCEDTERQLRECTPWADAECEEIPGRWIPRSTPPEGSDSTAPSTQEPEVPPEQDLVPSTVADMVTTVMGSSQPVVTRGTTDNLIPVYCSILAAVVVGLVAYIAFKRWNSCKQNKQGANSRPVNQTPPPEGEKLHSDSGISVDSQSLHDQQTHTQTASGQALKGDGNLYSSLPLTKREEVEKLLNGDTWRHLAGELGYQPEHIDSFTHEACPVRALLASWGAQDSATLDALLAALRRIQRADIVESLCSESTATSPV
UniProt Q13158: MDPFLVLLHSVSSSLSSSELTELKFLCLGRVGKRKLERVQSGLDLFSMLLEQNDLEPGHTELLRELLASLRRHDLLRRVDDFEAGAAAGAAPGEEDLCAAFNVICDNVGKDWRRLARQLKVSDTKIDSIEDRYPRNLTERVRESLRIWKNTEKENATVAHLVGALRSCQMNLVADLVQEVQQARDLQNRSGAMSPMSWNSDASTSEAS
UniProt Q9Z0W1, residues 32-427: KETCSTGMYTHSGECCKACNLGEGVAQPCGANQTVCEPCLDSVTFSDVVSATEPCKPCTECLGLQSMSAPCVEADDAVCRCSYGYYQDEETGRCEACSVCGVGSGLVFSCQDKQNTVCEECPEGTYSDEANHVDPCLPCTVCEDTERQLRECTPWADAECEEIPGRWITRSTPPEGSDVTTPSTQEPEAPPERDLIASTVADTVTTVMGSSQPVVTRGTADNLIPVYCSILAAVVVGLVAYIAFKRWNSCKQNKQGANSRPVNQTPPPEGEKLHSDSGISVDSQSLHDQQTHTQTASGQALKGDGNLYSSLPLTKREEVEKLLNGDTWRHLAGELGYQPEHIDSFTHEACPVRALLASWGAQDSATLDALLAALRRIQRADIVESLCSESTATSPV

Positions count from the first letter of the chain named. Results are given in words; binding and its absence hold for the method and conditions named. For some assays here: In cells and extracts the contact can be indirect. Some binding calls cover weakened binding; strength is not graded here. For some assays here: Where a sequence is shown, tags or fusion partners need not be part of it.

The target in assay [1] is T1, Flag-tagged human NgR (human, UniProt Q9BZR6 27-447).
T1 construct: Nogo-66 receptor (NgR), human; Printed both as Flag-hNgR and as NgR-Flag; also called Flag-hNgR; NgR-Flag; source: HEK293, transfected, in lysate
T1 sequence (looked up): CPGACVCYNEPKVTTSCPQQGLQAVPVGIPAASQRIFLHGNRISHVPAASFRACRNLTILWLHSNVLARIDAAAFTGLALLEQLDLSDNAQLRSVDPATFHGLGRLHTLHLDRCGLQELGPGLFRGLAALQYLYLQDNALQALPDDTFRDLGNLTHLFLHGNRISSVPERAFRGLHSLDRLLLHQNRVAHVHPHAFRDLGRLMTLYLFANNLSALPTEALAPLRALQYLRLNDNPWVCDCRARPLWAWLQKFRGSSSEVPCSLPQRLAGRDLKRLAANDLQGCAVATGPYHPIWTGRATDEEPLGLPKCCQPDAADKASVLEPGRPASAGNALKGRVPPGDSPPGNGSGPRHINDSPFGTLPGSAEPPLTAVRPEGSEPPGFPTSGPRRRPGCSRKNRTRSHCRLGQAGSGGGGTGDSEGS
Put plainly: co-IP; 293T cells co-transfected with V5-p45 or V5-p75 and Flag-NgR; immunoprecipitated with Flag antibody (M2).

Assay [2] has as its target T2, Flag-p45 (mouse) (UniProt Q8CJ26).
T2 sequence: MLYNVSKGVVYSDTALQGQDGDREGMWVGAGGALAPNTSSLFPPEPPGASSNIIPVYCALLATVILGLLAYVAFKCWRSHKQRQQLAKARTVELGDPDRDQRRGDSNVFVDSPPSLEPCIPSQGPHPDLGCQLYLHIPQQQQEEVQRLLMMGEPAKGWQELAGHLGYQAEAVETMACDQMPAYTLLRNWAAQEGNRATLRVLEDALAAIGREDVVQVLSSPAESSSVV
Put plainly: co-IP; V5-tagged proteins transfected into CrmA/Flag-p45/293 stable cells; lysates immunoprecipitated with anti-Flag, blotted with anti-V5.

The target in assay [3] is T3, p45 (endogenous, P7 cerebellum) (mouse (endogenous in P7 cerebellum)) (UniProt Q8CJ26).
T3 sequence: T2 sequence
Put plainly: co-IP; P7 cerebellum extracts immunoprecipitated with anti-p75 ECD (9651) or anti-p45 ECD (6750) antibody, blotted with anti-p75 (Buster).

Assay [4] addresses T1, Flag-tagged human NgR. Put plainly: co-IP; HEK293 co-transfected with wild-type or mutant p75 and Flag-tagged NgR; p75 co-immunoprecipitated with NgR; blots quantified, wild type = 100%.
Assay [5] concerns the target T2, Flag-p45 (mouse). The assay can be described thus: co-IP; HEK293 transfected with wild-type or mutant p75 and Flag-p45.
The target of assay [6] is p75 wild type (full-length, no tag named) (UniProt P07174). Put plainly: non-reducing SDS-PAGE and Western blot (disulfide-linked dimer); p75 co-immunoprecipitated with NgR-Flag from HEK293 cells, run on non-reducing SDS-PAGE. For orientation: Immunoblotting shows a protein as a band on a membrane.
Assay [7] has as its target T4, p45-C58A (full-length) (mouse) (UniProt Q8CJ26).
T4 sequence: T2 sequence with C58A
Put plainly: co-IP; HEK293 transfected with p75 wild type or p75-C257A and p45 wild type or p45-C58A; Western blot.

Assay [8] has as its target T5, p45 wild type (full-length, no tag named) (mouse) (UniProt Q8CJ26).
T5 sequence: T2 sequence
The description is as above.

For assay [9], the target named is T5, p45 wild type (full-length, no tag named) (mouse). Put plainly: non-reducing SDS-PAGE and Western blot (disulfide-linked dimer); co-immunoprecipitates of p75 wild type or p75-C257A with p45 from HEK293 cells, reducing and non-reducing SDS-PAGE; band sensitive to DTT.
Assay [10] concerns the target T6, p45 D178A (full-length) (mouse) (UniProt Q8CJ26).
T6 sequence: T2 sequence with D178A
Put plainly: co-IP; HEK293 transfected with wild-type or mutant full-length p45 and Myc-p75.

Assay [11] has as its target T7, p45 D178R (full-length) (mouse) (UniProt Q8CJ26).
T7 sequence: T2 sequence with D178R
The description is as above.

For assay [12], the target named is T5, p45 wild type (full-length, no tag named) (mouse). The assay is described as above.
Assay [13] has as its target T8, p45 E173R (full-length) (mouse) (UniProt Q8CJ26).
T8 sequence: T2 sequence with E173R
The assay is described as above.

Assay [14] deals with T9, p45 C177H (full-length) (mouse) (UniProt Q8CJ26).
T9 sequence: T2 sequence with C177H
The description is as above.

Assay [15] addresses p75 wild type (full-length, no tag named) (UniProt P07174). Put plainly: co-IP; HEK293 co-transfected with p75, Flag-hNgR and p45 (varying amounts) or p45 deletion constructs; immunoprecipitated with anti-p75 (ICD) antibodies, probed with anti-Flag; RIPA lysis.

Take “V5-tagged p75 (from UniProt P07174 30-425) (receptor)”: the binding entry in the assay with Flag-tagged human NgR [1] and with Flag-p45 (mouse) [2] was “binds” in each case.
As to “V5-tagged FADD (from UniProt Q13158 1-208)”, in the assay with Flag-p45 (mouse) [2], the binding result is “binds”.
As for “p75 (endogenous, P7 cerebellum) (from UniProt Q9Z0W1 32-427) (receptor)”, in assay [3], the binding entry was “binds”.
Regarding “p75 wild type (full-length, no tag named) (from UniProt P07174 30-425) (receptor)”, the binding entry is listed as “binds” in the assay with Flag-tagged human NgR [4]; “binds” in the assay with Flag-p45 (mouse) [5]; “binds” in assay [6]; “binds weakly” in assay [7]; “binds” in assay [8]; “binds” in assay [9].
As for “Myc-p75 (from UniProt P07174 30-425) (receptor)”, the binding entry in [10], in [11], in assay [12], in assay [13] and in assay [14] was “binds” in each case.

B1: Flag-tagged human NgR (receptor, UniProt Q9BZR6 27-447)
chain: T1 sequence (looked up)
For the molecule B1, the binding result in assay [15] is listed as “binds”.

B2: V5-tagged p45 (receptor, UniProt Q8CJ26 1-228)
chain: T2 sequence
B2: the binding result with Flag-tagged human NgR [1] is “no binding”.
